The list shows a part of the results.
compound: COC(=O)N[C@@H](C)CNc1nccc(-c2cn(C(C)C)nc2-c2cc(Cl)cc(NS(C)(=O)=O)c2F)n1 [encorafenib]; test: log2 fold change, soluble protein after heating vs DMSO (PISA); higher = thermal stabilisation; K562 cells, 10 uM, 30 min; active = over 0.2 and 3.5 SD of the protein, either way, in both replicates (recomputed)
In short: (§1)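 Aliquots of K562 cells (2×10^6 cells/mL) treated with 10 μM compound for 30 min were heated for 3 min over 48°C-58°C. After pooling and extraction in PBS with 0.5% NP-40 at 4°C, soluble protein from a 21,000xg, 90 min spin was quantified by TMTpro 16plex LC-MS/MS with channel sums equalised. Thermal stability is expressed against control samples, from duplicates, as a log2 fold change.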

The chains behind the UniProt entries cited, without tags or fusion partners. Where a name states a change or a piece, a line headed by the entry shows the natural chain unless it says otherwise.
UniProt Q86TN4: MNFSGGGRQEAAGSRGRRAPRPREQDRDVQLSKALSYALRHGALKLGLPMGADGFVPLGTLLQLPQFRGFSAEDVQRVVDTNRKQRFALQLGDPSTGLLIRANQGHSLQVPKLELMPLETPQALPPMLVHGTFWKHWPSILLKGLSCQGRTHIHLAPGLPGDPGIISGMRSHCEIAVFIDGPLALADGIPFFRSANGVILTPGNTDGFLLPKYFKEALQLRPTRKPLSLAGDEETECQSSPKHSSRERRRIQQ
UniProt O75865, whole entry, looked up: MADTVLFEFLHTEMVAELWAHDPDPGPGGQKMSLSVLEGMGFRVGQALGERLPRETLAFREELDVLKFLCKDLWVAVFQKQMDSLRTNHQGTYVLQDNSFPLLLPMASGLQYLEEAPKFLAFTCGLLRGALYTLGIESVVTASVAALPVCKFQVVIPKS
UniProt P22105: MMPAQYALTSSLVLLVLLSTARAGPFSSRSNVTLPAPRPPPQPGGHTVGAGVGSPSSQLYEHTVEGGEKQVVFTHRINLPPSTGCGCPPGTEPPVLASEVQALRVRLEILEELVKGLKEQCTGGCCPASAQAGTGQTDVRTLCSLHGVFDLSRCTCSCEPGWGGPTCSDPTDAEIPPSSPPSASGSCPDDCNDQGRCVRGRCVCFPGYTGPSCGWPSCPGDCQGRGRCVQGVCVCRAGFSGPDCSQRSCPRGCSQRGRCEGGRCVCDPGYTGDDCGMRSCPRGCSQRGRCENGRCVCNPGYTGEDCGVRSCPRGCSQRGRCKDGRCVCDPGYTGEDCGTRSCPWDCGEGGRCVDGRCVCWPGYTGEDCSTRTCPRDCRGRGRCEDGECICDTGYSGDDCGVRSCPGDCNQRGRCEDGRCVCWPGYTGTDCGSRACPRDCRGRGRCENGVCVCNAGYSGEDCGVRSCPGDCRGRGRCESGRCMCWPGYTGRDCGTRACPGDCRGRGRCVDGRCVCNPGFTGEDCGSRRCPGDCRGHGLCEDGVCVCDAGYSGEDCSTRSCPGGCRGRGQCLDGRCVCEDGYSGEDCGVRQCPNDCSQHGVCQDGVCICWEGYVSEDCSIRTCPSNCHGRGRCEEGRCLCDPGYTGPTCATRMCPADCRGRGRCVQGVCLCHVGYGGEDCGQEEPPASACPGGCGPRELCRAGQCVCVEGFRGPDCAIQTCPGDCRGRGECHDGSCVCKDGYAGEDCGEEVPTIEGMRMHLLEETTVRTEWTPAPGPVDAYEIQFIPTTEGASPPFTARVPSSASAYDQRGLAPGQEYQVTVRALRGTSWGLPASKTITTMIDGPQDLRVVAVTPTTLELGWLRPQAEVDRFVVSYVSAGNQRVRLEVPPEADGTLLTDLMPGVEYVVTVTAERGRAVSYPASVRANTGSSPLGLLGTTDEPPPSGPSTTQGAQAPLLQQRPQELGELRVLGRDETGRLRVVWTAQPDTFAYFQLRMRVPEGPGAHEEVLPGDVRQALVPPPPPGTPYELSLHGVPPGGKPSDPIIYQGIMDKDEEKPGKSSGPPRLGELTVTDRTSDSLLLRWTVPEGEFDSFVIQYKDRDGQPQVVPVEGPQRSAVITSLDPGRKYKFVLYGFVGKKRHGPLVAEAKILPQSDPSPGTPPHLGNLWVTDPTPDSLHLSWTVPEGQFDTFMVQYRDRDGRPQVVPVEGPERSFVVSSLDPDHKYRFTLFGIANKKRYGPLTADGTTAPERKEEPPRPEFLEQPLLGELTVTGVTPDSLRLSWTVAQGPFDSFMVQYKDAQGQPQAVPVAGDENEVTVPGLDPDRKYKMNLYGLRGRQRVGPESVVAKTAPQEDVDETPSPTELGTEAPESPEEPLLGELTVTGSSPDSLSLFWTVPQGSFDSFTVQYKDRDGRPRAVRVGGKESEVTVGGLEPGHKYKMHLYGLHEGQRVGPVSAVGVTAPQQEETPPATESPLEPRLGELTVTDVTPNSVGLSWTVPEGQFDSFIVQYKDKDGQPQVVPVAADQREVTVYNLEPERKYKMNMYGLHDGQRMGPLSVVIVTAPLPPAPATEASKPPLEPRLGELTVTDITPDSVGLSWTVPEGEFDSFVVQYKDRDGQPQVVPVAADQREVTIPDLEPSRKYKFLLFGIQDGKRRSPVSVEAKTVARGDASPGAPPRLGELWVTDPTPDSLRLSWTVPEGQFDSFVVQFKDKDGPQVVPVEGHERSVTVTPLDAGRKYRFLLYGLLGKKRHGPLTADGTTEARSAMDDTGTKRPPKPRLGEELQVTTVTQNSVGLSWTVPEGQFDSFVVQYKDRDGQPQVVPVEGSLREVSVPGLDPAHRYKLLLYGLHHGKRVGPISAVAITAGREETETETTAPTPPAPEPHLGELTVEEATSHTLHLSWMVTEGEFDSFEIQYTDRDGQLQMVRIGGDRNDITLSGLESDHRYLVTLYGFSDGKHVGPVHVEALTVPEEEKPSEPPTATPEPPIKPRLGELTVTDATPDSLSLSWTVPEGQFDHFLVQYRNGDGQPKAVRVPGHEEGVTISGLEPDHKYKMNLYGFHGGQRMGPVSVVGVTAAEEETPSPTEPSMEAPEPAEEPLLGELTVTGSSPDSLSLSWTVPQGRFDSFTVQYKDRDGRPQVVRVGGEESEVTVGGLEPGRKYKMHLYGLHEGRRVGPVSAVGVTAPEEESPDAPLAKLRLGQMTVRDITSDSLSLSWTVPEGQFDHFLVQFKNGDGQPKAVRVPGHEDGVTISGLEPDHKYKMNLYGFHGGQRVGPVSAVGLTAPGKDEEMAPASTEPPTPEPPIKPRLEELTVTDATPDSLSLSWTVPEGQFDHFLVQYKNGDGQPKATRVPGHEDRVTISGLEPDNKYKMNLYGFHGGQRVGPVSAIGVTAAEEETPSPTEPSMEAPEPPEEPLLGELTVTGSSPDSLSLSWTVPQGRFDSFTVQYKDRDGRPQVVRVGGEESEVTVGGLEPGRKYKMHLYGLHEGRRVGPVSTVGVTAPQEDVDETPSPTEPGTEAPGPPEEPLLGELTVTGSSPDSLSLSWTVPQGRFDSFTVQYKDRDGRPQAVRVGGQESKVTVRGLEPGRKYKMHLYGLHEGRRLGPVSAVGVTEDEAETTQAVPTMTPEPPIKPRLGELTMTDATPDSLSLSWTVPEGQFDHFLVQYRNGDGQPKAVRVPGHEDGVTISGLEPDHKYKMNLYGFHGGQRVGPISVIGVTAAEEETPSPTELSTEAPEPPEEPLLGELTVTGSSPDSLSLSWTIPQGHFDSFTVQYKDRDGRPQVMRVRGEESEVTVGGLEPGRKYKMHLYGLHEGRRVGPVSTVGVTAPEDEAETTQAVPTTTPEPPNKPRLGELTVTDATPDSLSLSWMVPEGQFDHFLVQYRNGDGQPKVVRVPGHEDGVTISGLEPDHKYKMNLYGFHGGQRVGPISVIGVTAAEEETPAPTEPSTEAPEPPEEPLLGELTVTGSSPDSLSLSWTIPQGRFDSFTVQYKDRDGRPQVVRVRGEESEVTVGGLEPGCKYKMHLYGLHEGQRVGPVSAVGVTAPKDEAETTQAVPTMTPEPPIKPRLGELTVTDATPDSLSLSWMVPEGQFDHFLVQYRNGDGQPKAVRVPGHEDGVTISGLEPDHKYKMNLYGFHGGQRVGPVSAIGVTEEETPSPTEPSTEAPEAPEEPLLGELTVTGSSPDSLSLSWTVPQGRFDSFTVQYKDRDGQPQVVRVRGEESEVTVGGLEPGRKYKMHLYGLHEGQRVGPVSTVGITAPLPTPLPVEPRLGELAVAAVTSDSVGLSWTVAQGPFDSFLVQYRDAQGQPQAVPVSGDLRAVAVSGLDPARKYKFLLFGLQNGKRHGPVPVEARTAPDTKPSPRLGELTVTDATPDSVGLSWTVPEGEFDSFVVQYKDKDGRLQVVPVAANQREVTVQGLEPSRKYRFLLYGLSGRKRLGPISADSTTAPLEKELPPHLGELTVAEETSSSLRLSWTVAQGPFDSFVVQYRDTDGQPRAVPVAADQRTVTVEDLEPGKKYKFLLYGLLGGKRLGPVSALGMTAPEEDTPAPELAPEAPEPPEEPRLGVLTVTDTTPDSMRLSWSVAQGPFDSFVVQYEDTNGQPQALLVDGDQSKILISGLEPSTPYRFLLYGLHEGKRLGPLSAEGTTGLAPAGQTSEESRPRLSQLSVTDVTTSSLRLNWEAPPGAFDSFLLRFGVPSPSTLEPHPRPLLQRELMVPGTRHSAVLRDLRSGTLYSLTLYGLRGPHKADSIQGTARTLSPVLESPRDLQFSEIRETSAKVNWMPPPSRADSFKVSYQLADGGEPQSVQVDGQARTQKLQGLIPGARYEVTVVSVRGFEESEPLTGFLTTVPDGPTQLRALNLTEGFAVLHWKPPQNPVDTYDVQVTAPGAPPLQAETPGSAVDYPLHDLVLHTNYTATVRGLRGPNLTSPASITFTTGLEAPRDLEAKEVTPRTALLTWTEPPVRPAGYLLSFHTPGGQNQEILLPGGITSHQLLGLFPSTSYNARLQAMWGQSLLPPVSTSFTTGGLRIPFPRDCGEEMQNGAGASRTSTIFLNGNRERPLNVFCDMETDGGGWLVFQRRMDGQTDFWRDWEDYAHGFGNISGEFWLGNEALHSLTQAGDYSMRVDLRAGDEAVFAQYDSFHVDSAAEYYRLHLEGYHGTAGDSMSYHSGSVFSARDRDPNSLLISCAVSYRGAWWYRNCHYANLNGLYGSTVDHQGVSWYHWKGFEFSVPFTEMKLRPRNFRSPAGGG
UniProt Q9H496: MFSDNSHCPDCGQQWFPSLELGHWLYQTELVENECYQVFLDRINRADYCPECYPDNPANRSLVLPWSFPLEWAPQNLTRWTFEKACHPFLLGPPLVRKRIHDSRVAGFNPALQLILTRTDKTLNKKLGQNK
UniProt Q9H4I3: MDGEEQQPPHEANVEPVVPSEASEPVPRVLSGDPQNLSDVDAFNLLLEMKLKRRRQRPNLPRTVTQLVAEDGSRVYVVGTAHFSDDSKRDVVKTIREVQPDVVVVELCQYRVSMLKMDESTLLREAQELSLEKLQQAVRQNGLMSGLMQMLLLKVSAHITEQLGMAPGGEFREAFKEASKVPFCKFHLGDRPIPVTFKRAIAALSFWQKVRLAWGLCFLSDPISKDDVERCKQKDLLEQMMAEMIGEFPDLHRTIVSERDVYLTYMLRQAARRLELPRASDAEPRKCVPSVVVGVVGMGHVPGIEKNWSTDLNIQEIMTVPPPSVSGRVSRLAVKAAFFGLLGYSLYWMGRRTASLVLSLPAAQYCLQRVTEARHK
UniProt Q9C037: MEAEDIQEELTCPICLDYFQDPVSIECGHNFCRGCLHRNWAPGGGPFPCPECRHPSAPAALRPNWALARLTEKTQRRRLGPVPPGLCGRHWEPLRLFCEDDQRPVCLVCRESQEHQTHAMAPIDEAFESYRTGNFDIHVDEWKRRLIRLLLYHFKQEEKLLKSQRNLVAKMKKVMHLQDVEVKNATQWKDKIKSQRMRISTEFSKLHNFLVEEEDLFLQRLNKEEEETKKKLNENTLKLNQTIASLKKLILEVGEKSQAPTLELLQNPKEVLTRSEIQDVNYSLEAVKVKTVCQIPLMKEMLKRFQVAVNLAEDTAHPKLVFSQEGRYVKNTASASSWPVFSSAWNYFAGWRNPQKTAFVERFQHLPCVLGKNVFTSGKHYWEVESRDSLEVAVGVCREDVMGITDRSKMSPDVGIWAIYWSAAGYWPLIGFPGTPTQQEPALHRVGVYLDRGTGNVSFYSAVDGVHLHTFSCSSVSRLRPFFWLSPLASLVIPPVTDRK
UniProt Q8TDR0: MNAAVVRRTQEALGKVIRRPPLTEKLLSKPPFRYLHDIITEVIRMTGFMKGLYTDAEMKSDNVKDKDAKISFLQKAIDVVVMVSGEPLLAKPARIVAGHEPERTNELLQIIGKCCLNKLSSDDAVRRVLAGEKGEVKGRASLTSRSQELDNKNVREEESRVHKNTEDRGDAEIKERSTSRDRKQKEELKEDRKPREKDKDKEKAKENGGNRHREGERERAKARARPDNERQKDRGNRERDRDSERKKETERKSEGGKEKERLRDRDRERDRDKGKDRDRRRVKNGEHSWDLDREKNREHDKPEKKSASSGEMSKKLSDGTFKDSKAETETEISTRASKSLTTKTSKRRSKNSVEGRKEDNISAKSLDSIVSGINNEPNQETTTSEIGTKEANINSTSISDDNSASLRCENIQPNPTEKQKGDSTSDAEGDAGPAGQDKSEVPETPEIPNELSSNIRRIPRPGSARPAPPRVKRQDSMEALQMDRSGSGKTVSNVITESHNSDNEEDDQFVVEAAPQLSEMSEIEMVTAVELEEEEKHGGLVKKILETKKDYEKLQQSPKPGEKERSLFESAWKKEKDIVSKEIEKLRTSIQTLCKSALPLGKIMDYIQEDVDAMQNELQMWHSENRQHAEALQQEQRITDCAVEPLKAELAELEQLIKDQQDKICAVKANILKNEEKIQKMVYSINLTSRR
UniProt O43399: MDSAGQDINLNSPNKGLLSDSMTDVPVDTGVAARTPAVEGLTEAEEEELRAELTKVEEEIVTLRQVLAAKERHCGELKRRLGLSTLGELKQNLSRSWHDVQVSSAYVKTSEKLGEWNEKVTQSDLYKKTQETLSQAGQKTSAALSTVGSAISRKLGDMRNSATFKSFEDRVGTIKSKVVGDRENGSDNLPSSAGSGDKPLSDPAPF

log2 fold change, inactive:
TRPT1 isoform 4 (UniProt Q86TN4) 0.036
TRIM65 (UniProt Q6PJ69) -0.045
TRAPPC6A isoform 2 (UniProt O75865) 0.063
TRAM2 (UniProt Q15035) 0.046
TRIP12 isoform 3 (UniProt Q14669) 0.033
TPRG1L (UniProt Q5T0D9) -0.047
TRIT1 (UniProt Q9H3H1) 0.066
TNXB isoform 4 (UniProt P22105) -0.081
TNIP1 (UniProt Q15025) -0.132
TOR1AIP2 (UniProt Q9H496) -0.1
TRMT5 (UniProt Q32P41) 0.087
TRIM29 (UniProt Q14134) -0.077
TRIO (UniProt O75962) -0.097
TRABD (UniProt Q9H4I3) -0.01
TSC2 (UniProt P49815) 0.042
TRIM4 (UniProt Q9C037) 0.04

compound: COC(=O)[C@H](CCSC)NC(=O)C1=C(C=C(C=C1)NC[C@H](CS)N)C2=CC=CC=C2; test: as above
In short: as §1

log2 fold change, inactive:
TRAPPC2 isoform 3 (UniProt P0DI81) -0.08
TRIM65 (UniProt Q6PJ69) 0.036
TRAM2 (UniProt Q15035) 0.03
TPRA1 (UniProt Q86W33) -0.008
TRIP12 isoform 3 (UniProt Q14669) 0.11
TRADD (UniProt Q15628) -0.012
TRAF7 (UniProt Q6Q0C0) -0.451
TRMT5 (UniProt Q32P41) -0.234
TRIM41 (UniProt Q8WV44) 0.154
TRAF3IP1 (UniProt Q8TDR0) -0.108
TPD52L2 isoform 3 (UniProt O43399) -0.098
TRABD (UniProt Q9H4I3) -0.033
TRAF3 (UniProt Q13114) 0.023
TRIM4 (UniProt Q9C037) -0.108

Source: the supplement of paper PMC10849652
